Source: US9408392B2, “Compounds” (SYNGENTA PARTICIPATIONS AG, priority 2012, dated 2016)
Some results were stated once for a whole list of compounds, not compound by compound.

Key:
[1] = test system: Meloidogyne spp. (Root-knot nematode); test: Meloidogyne spp. (Root-knot nematode) contact activity, preventive, pouch test (Biological Screen Nem 1); type: in vivo; details: cucumber cv. Toshka seed, test solution at 200 ppm, 3000 eggs, twelve days, number of galls per root system
Description: Meloidogyne spp. (Root-knot nematode) contact activity, preventive. Pouch test. Filter papers (9 cm×4.5 cm) with a small pocket were placed into plastic pouches (12 cm×6 cm). One cucumber cv. Toshka seed was placed in the centre of the filter paper pocket of all the pouches needed for a test. The cucumber seeds in the pouches were treated with test solutions at 200 ppm by pipetting the solution directly over the cucumber seed in the filter paper pocket in the pouch. Prior to application, the compound solution was prepared at twice the concentration required and the egg suspension is prepared with FORL nutrient solution with 3000 eggs/0.5 ml. After applying all the treatments, 3000 eggs (in 0.5 ml of FORL nutrient solution) were pipetted into the pouches. The pouches were incubated in a moist chamber for twelve days and watered regularly to maintain good filter paper moisture essential for the growing cucumber root system. After this period, the filter paper containing the germinated cucumber seedling was removed from the plastic pouch to assess the number of galls caused by Meloidogyne spp. per root system. Biological Screen Nem 1. Meloidogyne spp. (Root-knot nematode) contact activity, preventive. Pouch test. Values are given in % galling.

[2] = test system: M. incognita; test: Meloidogyne spp. (Root-knot nematode) contact activity, preventive, drench test (Biological Screen Nem 2); type: in vivo; details: cucumber cv. Toshka in pots, 5 ml WP10 suspension at 20 ppm, 3000 eggs of M. incognita, fourteen days, Zeck's gall index
Description: Meloidogyne spp. (Root-knot nematode) contact activity, preventive, drench test. Cucumber cv. Toshka seeds were shown directly into pots filled with a sandy substrate. Six days later pots were each treated with 5 ml of a WP10 suspension of the test compound at 20 ppm. Hereafter pots were inoculated with 3000 eggs of M. incognita. The trial was harvested fourteen days after trial application and inoculation. Root galling was assessed according to Zeck's gall index (Zeck, 1971). Biological Screen Nem 2. Meloidogyne spp. (Root-knot nematode) contact activity, preventive, drench test. Values are given in % galling.

Row | Compound | reduction of galling compared to the untreated control [1] | reduction of galling compared to the untreated control [2]
1 | O=C(N[C@@H]1C[C@@H]1c1ccc(F)cc1)c1ccccc1C(F)(F)F (relative stereo) [Compound 67-003, N-[cis-2-(4-Fluoro-Phenyl)-Cyclopropyl]-2-Trifluoromethyl-benzamide] | greater than 80% | greater than 80%
2 | O=C(N[C@@H]1C[C@@H]1c1ccc(OC(F)F)cc1)c1ccccc1C(F)(F)F (relative stereo) [Compound 67-011, N-[cis-2-(4-difluoromethoxy-phenyl)-cyclopropyl]-2-trifluoromethyl-benzamide] | greater than 80% | greater than 80%
